From PubChem BioAssay AID256 (DTP/NCI, 2004)
The list is a part of this screen's results and no random one: it gathers tests that were run many times, whatever their T/C, doses with no T/C, and many T/C values between a quarter and a half above the control. Other doses and runs of a compound stand elsewhere. T/C gives the treated animals as a percentage of the vehicle group. Some entries give survivors of the animals treated and no T/C: the source files T/C as zero there, which appears to mark a toxic dose or a test without result, not a measured value. Some survivor counts are full or nearly so, which does not show that the dose was tolerated: the source hardly ever lists a survival T/C far under the control, and the zero likely stands for such cases as well. Survivors were counted at the toxicity check, usually on the fifth day, unless a day is given; later deaths do not show. Schedule codes are those of the source, read here as Q, the interval in days (D) or hours (H), X, the number of doses. Some structures stand for samples that the source files as different forms (salt, stereo form or complex); doses refer to the form tested. Some entries were tested several times; the values are given in rising order. For survival time, the PubChem record calls one and a half times the control and up active, and a quarter to a half above the control has no call in these data; cut-offs in other NCI protocols can differ. Some T/C values are followed by the survivors on the day toxicity was checked, most often the fifth; without a count, all were alive then.

System: CD2F1 mice, L1210 leukemia ip, survival T/C
Test: NCI In Vivo Anticancer Drug Screen. Data for tumor model L1210 Leukemia (intraperitoneal) in CD2F1 (CDF1) mice
Conditions: higher T/C = longer survival
Outline: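 Read-out first: treated-group measurement over vehicle-control measurement, expressed as a ratio. Animals bore a transplanted tumor line and were dosed with compound or vehicle.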

[1] = T/C endpoint: mean survival time, dose: 400.0 mg/kg/injection, schedule: Q01DX009 (ip), vehicle: saline with Tween-80
[2] = T/C endpoint: mean survival time, dose: 100.0 mg/kg/injection, schedule: Q01DX001 (ip), vehicle: saline
[3] = T/C endpoint: mean survival time, dose: 400.0 mg/kg/injection, schedule: Q01DX001 (ip), vehicle: saline with Tween-80

O=C1NC(=O)C2C3C=CC(C12)C1C2C(=O)NC(=O)C2C31 (stereo not given) was tested, and the T/C (T/C endpoint: mean survival time, dose: 25.0 mg/kg/injection, schedule: Q01DX009 (ip), vehicle: saline with Tween-80) was 132 % of control [9 of 10 alive], the survivor count (T/C endpoint: mean survival time, dose: 200.0 mg/kg/injection, schedule: Q01DX009 (ip), vehicle: saline with Tween-80) was 9 of 10 and the survivor count [1] was 2 of 10. For the same compound, the T/C (T/C endpoint: median survival time, dose: 5.2 mg/kg/injection, schedule: Q03HX024 (ip), vehicle: clinical formulation) was 145 % of control, the T/C (T/C endpoint: median survival time, dose: 6.25 mg/kg/injection, schedule: Q01DX009 (ip), vehicle: saline with Tween-80) was 127 % of control and the T/C (T/C endpoint: median survival time, dose: 10.0 mg/kg/injection, schedule: Q03HX027 (ip), vehicle: saline) was 141 % of control. For the same compound, the survivor count (T/C endpoint: median survival time, dose: 15.6 mg/kg/injection, schedule: Q03HX008 (ip), vehicle: clinical formulation) was 5 of 10, the T/C (T/C endpoint: median survival time, dose: 25.0 mg/kg/injection, schedule: Q01DX005 (iv), vehicle: clinical formulation) was 136 % of control and the T/C (T/C endpoint: median survival time, dose: 25.0 mg/kg/injection, schedule: Q01DX009 (ip), vehicle: saline with Tween-80) was 139 % of control. The T/C (T/C endpoint: median survival time, dose: 30.0 mg/kg/injection, schedule: Q01DX009 (ip), vehicle: saline) was 149 % of control, the survivor count (T/C endpoint: median survival time, dose: 31.2 mg/kg/injection, schedule: Q03HX008 (ip), vehicle: clinical formulation) was 1 of 10 and the survivor count (T/C endpoint: median survival time, dose: 41.6 mg/kg/injection, schedule: Q03HX024 (ip), vehicle: clinical formulation) was 2 of 10. For the same compound, the T/C (T/C endpoint: median survival time, dose: 41.6 mg/kg/injection, schedule: Q04DX003 (ip), vehicle: clinical formulation) was 130 % of control, the T/C (T/C endpoint: median survival time, dose: 50.0 mg/kg/injection, schedule: Q01DX005 (iv), vehicle: other) was 146 % of control and the T/C (T/C endpoint: median survival time, dose: 62.5 mg/kg/injection, schedule: Q01DX001 (ip), vehicle: clinical formulation) was 139 % of control. The survivor count (T/C endpoint: median survival time, dose: 62.5 mg/kg/injection, schedule: Q03HX008 (ip), vehicle: clinical formulation) was 0 of 10, the survivor count (T/C endpoint: median survival time, dose: 91.4 mg/kg/injection, schedule: Q01DX009 (ip), vehicle: water) was 0 of 6 and the survivor count (T/C endpoint: median survival time, dose: 100.0 mg/kg/injection, schedule: Q01DX005 (ip), vehicle: clinical formulation) was 3 of 10. The survivor count (T/C endpoint: median survival time, dose: 100.0 mg/kg/injection, schedule: Q01DX005 (iv), vehicle: clinical formulation) was 1 of 10, the survivor count (T/C endpoint: median survival time, dose: 100.0 mg/kg/injection, schedule: Q01DX009 (ip), vehicle: clinical formulation) was 5 of 10 and the T/C (T/C endpoint: median survival time, dose: 100.0 mg/kg/injection, schedule: Q01DX009 (ip), vehicle: saline with Tween-80) was 135 % of control. The survivor count (T/C endpoint: median survival time, dose: 125.0 mg/kg/injection, schedule: Q01DX001 (iv), vehicle: clinical formulation) was 1 of 10, the survivor count (T/C endpoint: median survival time, dose: 125.0 mg/kg/injection, schedule: Q03HX008 (ip), vehicle: clinical formulation) was 0 of 10 and the survivor count (T/C endpoint: median survival time, dose: 138.9 mg/kg/injection, schedule: Q01DX009 (ip), vehicle: clinical formulation) was 0 of 6. For the same compound, the survivor count (T/C endpoint: median survival time, dose: 138.9 mg/kg/injection, schedule: Q01DX009 (ip), vehicle: saline) was 2 of 6, the survivor count (T/C endpoint: median survival time, dose: 138.9 mg/kg/injection, schedule: Q01DX009 (ip), vehicle: water) was 1 of 6 and the survivor count (T/C endpoint: median survival time, dose: 166.6 mg/kg/injection, schedule: Q04DX003 (ip), vehicle: clinical formulation) was 0 of 10. For the same compound, the survivor count (T/C endpoint: median survival time, dose: 200.0 mg/kg/injection, schedule: Q01DX005 (ip), vehicle: clinical formulation) was 0 of 10, the survivor count (T/C endpoint: median survival time, dose: 200.0 mg/kg/injection, schedule: Q01DX005 (ip), vehicle: other) was 0 of 10 and the survivor count (T/C endpoint: median survival time, dose: 200.0 mg/kg/injection, schedule: Q01DX005 (iv), vehicle: clinical formulation) was 0 of 10. The survivor count (T/C endpoint: median survival time, dose: 200.0 mg/kg/injection, schedule: Q01DX005 (iv), vehicle: other) was 0 of 10, the survivor count (T/C endpoint: median survival time, dose: 200.0 mg/kg/injection, schedule: Q01DX009 (ip), vehicle: clinical formulation) was 1 of 10 and the survivor count (T/C endpoint: median survival time, dose: 200.0 mg/kg/injection, schedule: Q01DX009 (ip), vehicle: saline with Tween-80) was 4 of 10. For the same compound, the T/C (T/C endpoint: median survival time, dose: 200.0 mg/kg/injection, schedule: Q01DX009 (oral), vehicle: other) was 131 % of control, the T/C (T/C endpoint: median survival time, dose: 222.2 mg/kg/injection, schedule: Q01DX009 (oral), vehicle: clinical formulation) was 134 % of control and the survivor count (T/C endpoint: median survival time, dose: 250.0 mg/kg/injection, schedule: Q01DX001 (ip), vehicle: clinical formulation) was 6 of 10. The survivor count (T/C endpoint: median survival time, dose: 250.0 mg/kg/injection, schedule: Q01DX001 (iv), vehicle: clinical formulation) was 0 of 10, the survivor count (T/C endpoint: median survival time, dose: 333.3 mg/kg/injection, schedule: Q04DX003 (ip), vehicle: clinical formulation) was 0 of 10 and the survivor count (T/C endpoint: median survival time, dose: 400.0 mg/kg/injection, schedule: Q01DX005 (iv), vehicle: clinical formulation) was 0 of 10. The T/C (T/C endpoint: median survival time, dose: 400.0 mg/kg/injection, schedule: Q01DX009 (oral), vehicle: other) was 132 % of control, the survivor count (T/C endpoint: median survival time, dose: 500.0 mg/kg/injection, schedule: Q01DX001 (ip), vehicle: clinical formulation) was 0 of 10 and the survivor count (T/C endpoint: median survival time, dose: 500.0 mg/kg/injection, schedule: Q01DX001 (iv), vehicle: clinical formulation) was 0 of 10. The survivor count (T/C endpoint: median survival time, dose: 1000.0 mg/kg/injection, schedule: Q01DX001 (ip), vehicle: clinical formulation) was 0 of 10 and the survivor count (T/C endpoint: median survival time, dose: 1000.0 mg/kg/injection, schedule: Q01DX001 (iv), vehicle: clinical formulation) was 0 of 10.
In the case of CC1=C2C(=CC(C)(CO)C2O)C(O)C(C)(O)C12CC2 (stereo not given), the survivor count (T/C endpoint: mean survival time, dose: 25.0 mg/kg/injection, schedule: Q01DX005 (ip), vehicle: water) was 3 of 3, the survivor count (T/C endpoint: mean survival time, dose: 50.0 mg/kg/injection, schedule: Q01DX005 (ip), vehicle: water) was 1 of 3 and the survivor count (T/C endpoint: mean survival time, dose: 100.0 mg/kg/injection, schedule: Q01DX005 (ip), vehicle: water) was 0 of 3. The survivor count (T/C endpoint: mean survival time, dose: 200.0 mg/kg/injection, schedule: Q01DX005 (ip), vehicle: water) was 0 of 3 and the survivor count (T/C endpoint: mean survival time, dose: 400.0 mg/kg/injection, schedule: Q01DX005 (ip), vehicle: water) was 0 of 3.
C[N+](C)(C)CCOC(=O)c1cc(CBr)cc(CBr)c1 was tested, and the survivor count (T/C endpoint: mean survival time, dose: 200.0 mg/kg/injection, schedule: Q04DX003 (ip), vehicle: saline) was 0 of 6 and the survivor count (T/C endpoint: mean survival time, dose: 400.0 mg/kg/injection, schedule: Q04DX003 (ip), vehicle: saline) was 0 of 6.
With C=CC[P+](c1ccccc1)(c1ccccc1)c1ccccc1 the survivor count (T/C endpoint: mean survival time, dose: 25.0 mg/kg/injection, schedule: Q01DX001 (ip), vehicle: saline) was 1 of 3, the survivor count (T/C endpoint: mean survival time, dose: 50.0 mg/kg/injection, schedule: Q01DX001 (ip), vehicle: saline) was 0 of 3 and 1 of 3 and the survivor count (T/C endpoint: mean survival time, dose: 75.0 mg/kg/injection, schedule: Q01DX001 (ip), vehicle: other) was 2 of 6. The survivor count (T/C endpoint: mean survival time, dose: 75.0 mg/kg/injection, schedule: Q01DX001 (ip), vehicle: saline) was 0 of 6, the survivor count [2] was 0 of 3 and the survivor count (T/C endpoint: mean survival time, dose: 150.0 mg/kg/injection, schedule: Q01DX001 (ip), vehicle: other) was 2 of 6. The survivor count (T/C endpoint: mean survival time, dose: 150.0 mg/kg/injection, schedule: Q01DX001 (ip), vehicle: saline) was 0 of 6, the survivor count (T/C endpoint: mean survival time, dose: 300.0 mg/kg/injection, schedule: Q01DX001 (ip), vehicle: other) was 0 of 6 and the survivor count (T/C endpoint: mean survival time, dose: 300.0 mg/kg/injection, schedule: Q01DX001 (ip), vehicle: saline) was 0 of 6.
O=C(COc1ccc(Cl)c(Cl)c1)NCCc1cc[n+](Cc2ccc(Cl)cc2S(=O)(=O)F)cc1 was tested, and the survivor count [3] was 0 of 6.
In the case of NC(=O)NC(=O)c1cccc([N+](=O)[O-])c1, the survivor count [1] was 2 of 6 and the survivor count (T/C endpoint: mean survival time, dose: 400.0 mg/kg/injection, schedule: Q04DX003 (ip), vehicle: saline with Tween-80) was 6 of 6.
In the case of c1ccc(CC23CN(C4CCCCC4)CC24N(c2ccccc23)C23CN(C5CCCCC5)CC2(Cc2ccccc2)c2ccccc2N43)cc1 (stereo not given), the survivor count (T/C endpoint: mean survival time, dose: 200.0 mg/kg/injection, schedule: Q01DX001 (ip), vehicle: saline with Tween-80) was 6 of 6 and the survivor count [3] was 6 of 6.
With CC(c1ccccc1)N1CCCOP1(=O)N(CCCl)CCCl (stereo not given) the survivor count (T/C endpoint: mean survival time, dose: 500.0 mg/kg/injection, schedule: Q01DX001 (ip), vehicle: other) was 2 of 6.
Nc1n[nH]c(=S)s1 was tested, and the survivor count (T/C endpoint: mean survival time, dose: 400.0 mg/kg/injection, schedule: Q04DX002 (ip), vehicle: saline with Tween-80) was 1 of 3.
O=C1C=C(O)C(=O)C=C1O was tested, and the survivor count [2] was 2 of 6, the survivor count (T/C endpoint: mean survival time, dose: 200.0 mg/kg/injection, schedule: Q01DX001 (ip), vehicle: saline) was 0 of 6 and the survivor count (T/C endpoint: mean survival time, dose: 400.0 mg/kg/injection, schedule: Q01DX001 (ip), vehicle: saline) was 0 of 6.
